Data source: PubChem BioAssay AID504804 (Drosophila RNAi Screening Center, 2011)
In all, the deposit lists about 19,000 reagents; this is a random part of those with a known target gene and a result. Of all reagents, 47 (0.25%) got an active call. 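Signals are raw, not normalised; exact z-scores behind calls not deposited; actives needed confirmation, so some wells reaching 2 SD are inactive.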 A number with no mark means an inactive call. No sequences are given here.

Aim: 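Knock-downs shielding fly cells from apoptosis caused by DNA damage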 (primary screen)
Cell system: Drosophila Kc cells
Knock-down reagent: long dsRNA against Drosophila genes, 0.5 µg dsRNA per well
Timing: 96 h (48 h knock-down, then 48 h drug)
Conditions: doxorubicin 5 µg/ml for 48 h, added 48 h after dsRNA
Measured: 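Luminescent ATP counts per replicate, not normalised, reflecting viable cells after 48 h dsRNA knock-down followed by 48 h of 5 µg/ml doxorubicin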
Reading the numbers: raw ATP luminescence: higher = more viable cells, protection from doxorubicin
Hit rule: 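Active when both duplicate wells lie at least 2 SD above the plate mean and protection is confirmed by rescreening and independent dsRNAs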

fd59A [DRSC04685] showed raw ATP luminescence, replicate 1 = 68637; raw ATP luminescence, replicate 2 = 60460. With knock-down of dsf [DRSC03524], the record shows raw ATP luminescence, replicate 1 = 31210; raw ATP luminescence, replicate 2 = 35310. OstDelta [DRSC06980] gave raw ATP luminescence, replicate 1 = 62513; raw ATP luminescence, replicate 2 = 74333. After knock-down of CG18404 [DRSC15323], the record shows raw ATP luminescence, replicate 1 = 35380; raw ATP luminescence, replicate 2 = 41390. Against Vha36-1 [DRSC07098], the values are raw ATP luminescence, replicate 1 = 69687; raw ATP luminescence, replicate 2 = 65573. For CG30412 [DRSC04564], the entry reads raw ATP luminescence, replicate 1 = 66290; raw ATP luminescence, replicate 2 = 68413.

For RpL15 [DRSC20963], the entry reads raw ATP luminescence, replicate 1 = 76180; raw ATP luminescence, replicate 2 = 85680. Depletion of Jig [DRSC14974] came out at: raw ATP luminescence, replicate 1 = 77910; raw ATP luminescence, replicate 2 = 61820. For Osi4 [DRSC12134], the entry reads raw ATP luminescence, replicate 1 = 53290; raw ATP luminescence, replicate 2 = 55723. With knock-down of CG43345 [DRSC03164] the results were raw ATP luminescence, replicate 1 = 98703; raw ATP luminescence, replicate 2 = 65657. With knock-down of TwdlT [DRSC16677], the screen gave raw ATP luminescence, replicate 1 = 58260; raw ATP luminescence, replicate 2 = 43770. Zaf1 [DRSC16121] showed raw ATP luminescence, replicate 1 = 66510; raw ATP luminescence, replicate 2 = 67560.

Depletion of Eig71Ej [DRSC11157] resulted in: raw ATP luminescence, replicate 1 = 70003; raw ATP luminescence, replicate 2 = 55880. With knock-down of Lsp2 [DRSC09841], the screen gave raw ATP luminescence, replicate 1 = 69830; raw ATP luminescence, replicate 2 = 77117. Lsp2 [DRSC11216] gave raw ATP luminescence, replicate 1 = 65170; raw ATP luminescence, replicate 2 = 81317. Against Gasz [DRSC06829] the deposit lists raw ATP luminescence, replicate 1 = 52487; raw ATP luminescence, replicate 2 = 50180. CG12713 [DRSC09900] showed raw ATP luminescence, replicate 1 = 38183; raw ATP luminescence, replicate 2 = 52867. With knock-down of CG6569 [DRSC16067], the screen gave raw ATP luminescence, replicate 1 = 64990; raw ATP luminescence, replicate 2 = 81150.

After knock-down of fd96Cb [DRSC16947], the screen gave raw ATP luminescence, replicate 1 = 63640; raw ATP luminescence, replicate 2 = 67550. After knock-down of Act5C [DRSC17723] the results were raw ATP luminescence, replicate 1 = 43100; raw ATP luminescence, replicate 2 = 45230. After knock-down of DAAM [DRSC18479], the record shows raw ATP luminescence, replicate 1 = 1.13e5; raw ATP luminescence, replicate 2 = 1.48e5. After knock-down of CG13713 [DRSC08322], the screen gave raw ATP luminescence, replicate 1 = 82153; raw ATP luminescence, replicate 2 = 99047. For CG31729 [DRSC02524], the entry reads raw ATP luminescence, replicate 1 = 95107; raw ATP luminescence, replicate 2 = 72363. With knock-down of CG31729 [DRSC02946], the screen gave raw ATP luminescence, replicate 1 = 51230; raw ATP luminescence, replicate 2 = 82773.

After knock-down of eIF4EHP [DRSC13653] the results were raw ATP luminescence, replicate 1 = 2.02e5; raw ATP luminescence, replicate 2 = 1.86e5. eIF4EHP [DRSC14265] scored raw ATP luminescence, replicate 1 = 38093; raw ATP luminescence, replicate 2 = 43317. Pen [DRSC03396] gave raw ATP luminescence, replicate 1 = 1.01e5; raw ATP luminescence, replicate 2 = 70777. With knock-down of pon [DRSC18823] the results were raw ATP luminescence, replicate 1 = 50970; raw ATP luminescence, replicate 2 = 49020.
